# Library screen at single concentrations

Amino acid sequences for entries named in this document (tags omitted). Residues count along the entry.
UniProt P9WNZ1, whole entry: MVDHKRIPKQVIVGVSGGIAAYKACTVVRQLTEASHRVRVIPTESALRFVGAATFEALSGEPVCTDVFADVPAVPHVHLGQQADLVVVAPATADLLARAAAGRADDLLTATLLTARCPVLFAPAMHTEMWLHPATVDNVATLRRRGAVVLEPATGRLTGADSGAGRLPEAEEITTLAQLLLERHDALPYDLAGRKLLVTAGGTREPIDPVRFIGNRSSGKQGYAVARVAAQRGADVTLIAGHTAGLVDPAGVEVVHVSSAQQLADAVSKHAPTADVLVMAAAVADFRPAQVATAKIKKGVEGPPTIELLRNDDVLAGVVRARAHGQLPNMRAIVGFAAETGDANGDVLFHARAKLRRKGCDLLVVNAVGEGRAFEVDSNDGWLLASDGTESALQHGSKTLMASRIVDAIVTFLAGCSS
UniProt I6X8D2, whole entry: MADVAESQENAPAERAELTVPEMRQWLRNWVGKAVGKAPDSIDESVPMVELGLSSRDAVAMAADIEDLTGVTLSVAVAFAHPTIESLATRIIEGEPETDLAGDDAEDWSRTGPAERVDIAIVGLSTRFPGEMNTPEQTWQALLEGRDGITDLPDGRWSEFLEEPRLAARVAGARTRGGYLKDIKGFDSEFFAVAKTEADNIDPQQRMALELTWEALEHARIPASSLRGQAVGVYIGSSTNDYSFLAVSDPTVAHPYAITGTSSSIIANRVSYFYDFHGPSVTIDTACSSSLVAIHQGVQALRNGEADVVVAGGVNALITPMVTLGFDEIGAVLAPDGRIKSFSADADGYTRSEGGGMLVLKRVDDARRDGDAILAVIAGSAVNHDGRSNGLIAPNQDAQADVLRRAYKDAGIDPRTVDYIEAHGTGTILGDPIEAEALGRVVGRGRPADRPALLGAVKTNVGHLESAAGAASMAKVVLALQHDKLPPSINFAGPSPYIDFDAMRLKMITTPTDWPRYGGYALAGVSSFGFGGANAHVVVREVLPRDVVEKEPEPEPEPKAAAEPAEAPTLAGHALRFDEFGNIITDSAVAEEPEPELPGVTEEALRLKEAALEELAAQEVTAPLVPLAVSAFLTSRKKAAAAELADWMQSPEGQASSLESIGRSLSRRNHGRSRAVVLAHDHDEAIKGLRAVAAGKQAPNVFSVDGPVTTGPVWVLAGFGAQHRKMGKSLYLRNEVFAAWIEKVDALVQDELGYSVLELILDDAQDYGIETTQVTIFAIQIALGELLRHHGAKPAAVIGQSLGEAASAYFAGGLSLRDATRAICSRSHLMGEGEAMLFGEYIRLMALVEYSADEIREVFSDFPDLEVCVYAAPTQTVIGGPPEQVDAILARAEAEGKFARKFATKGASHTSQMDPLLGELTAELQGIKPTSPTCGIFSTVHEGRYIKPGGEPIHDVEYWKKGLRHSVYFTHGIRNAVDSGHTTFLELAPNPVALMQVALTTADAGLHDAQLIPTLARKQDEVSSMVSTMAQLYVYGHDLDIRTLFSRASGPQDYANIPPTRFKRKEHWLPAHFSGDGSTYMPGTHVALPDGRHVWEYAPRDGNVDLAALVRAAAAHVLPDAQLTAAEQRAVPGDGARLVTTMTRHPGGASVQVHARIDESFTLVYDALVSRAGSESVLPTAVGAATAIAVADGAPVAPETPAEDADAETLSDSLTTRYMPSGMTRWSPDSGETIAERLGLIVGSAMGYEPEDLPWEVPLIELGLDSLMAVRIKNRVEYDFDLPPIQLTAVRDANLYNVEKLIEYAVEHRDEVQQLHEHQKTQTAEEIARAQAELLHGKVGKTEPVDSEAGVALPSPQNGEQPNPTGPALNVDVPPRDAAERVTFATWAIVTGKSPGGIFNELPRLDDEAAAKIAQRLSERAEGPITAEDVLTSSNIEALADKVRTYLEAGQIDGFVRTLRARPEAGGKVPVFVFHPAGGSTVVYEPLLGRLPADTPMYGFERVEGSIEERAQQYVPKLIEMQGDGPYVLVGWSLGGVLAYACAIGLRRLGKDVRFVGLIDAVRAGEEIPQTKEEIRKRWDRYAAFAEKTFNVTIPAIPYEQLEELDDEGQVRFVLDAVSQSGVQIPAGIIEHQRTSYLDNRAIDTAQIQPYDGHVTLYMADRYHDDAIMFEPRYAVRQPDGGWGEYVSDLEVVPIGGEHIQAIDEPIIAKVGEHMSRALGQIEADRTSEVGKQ
UniProt P9WFT3, whole entry: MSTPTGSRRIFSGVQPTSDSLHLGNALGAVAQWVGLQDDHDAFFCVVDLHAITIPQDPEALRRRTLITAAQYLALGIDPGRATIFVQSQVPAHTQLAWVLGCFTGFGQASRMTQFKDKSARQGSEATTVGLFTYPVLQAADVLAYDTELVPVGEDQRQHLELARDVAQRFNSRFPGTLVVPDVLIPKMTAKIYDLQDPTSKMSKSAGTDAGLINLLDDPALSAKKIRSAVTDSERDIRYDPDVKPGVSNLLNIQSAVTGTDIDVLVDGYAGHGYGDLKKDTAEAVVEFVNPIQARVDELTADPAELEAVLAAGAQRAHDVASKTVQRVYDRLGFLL
UniProt A4I591, 1-473: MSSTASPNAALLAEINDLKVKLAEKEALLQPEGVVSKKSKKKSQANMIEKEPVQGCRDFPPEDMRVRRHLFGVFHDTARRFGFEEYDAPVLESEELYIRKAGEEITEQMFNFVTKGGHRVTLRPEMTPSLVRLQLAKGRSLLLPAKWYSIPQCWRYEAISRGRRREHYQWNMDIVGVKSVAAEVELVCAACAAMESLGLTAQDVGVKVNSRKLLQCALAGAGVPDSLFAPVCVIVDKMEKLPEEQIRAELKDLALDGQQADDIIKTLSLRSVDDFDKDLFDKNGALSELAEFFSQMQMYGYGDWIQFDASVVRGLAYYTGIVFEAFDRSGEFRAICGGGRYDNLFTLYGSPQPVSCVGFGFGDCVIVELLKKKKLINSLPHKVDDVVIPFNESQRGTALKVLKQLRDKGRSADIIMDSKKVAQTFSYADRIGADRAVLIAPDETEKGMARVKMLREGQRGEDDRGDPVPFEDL

Results are given as percent effect. The record does not define 0% and 100%; most values in the screen are far below 50% and negative numbers occur (in some assays of this library far below -100). The compounds are a random part of those screened. A dash means the value is not listed here; it may have been measured.

CoaBC: 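Coenzyme A biosynthesis protein CoaBC, Mycobacterium tuberculosis (UniProt P9WNZ1). Enzyme assay of CoaBC with a phosphate dye (Biomol Green) read at 650 nm. Concentration: 30 µM. Higher reads as stronger inhibition, judged from the few compounds that gave an IC50. Most strong results did not repeat in a second test. Size under these conditions: about 67,000 compounds, about 40 of them at 50% or above in at least one test.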
Pks13 thioesterase: 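Polyketide synthase Pks13, Mycobacterium tuberculosis (UniProt I6X8D2). Enzyme assay of the thioesterase domain of polyketide synthase 13; the read-out is not stated. Concentration: 30 µM. Higher reads as stronger inhibition (inferred from which compounds were picked for retests). Size under these conditions: about 67,000 compounds, about 300 of them at 50% or above in at least one test.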
MtTrpRS: 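Tryptophan-tRNA ligase, Mycobacterium tuberculosis (UniProt P9WFT3). Enzyme assay of tryptophanyl-tRNA synthetase; the read-out is not stated. Tested at 10 µM. Direction is not recorded; retested compounds ran higher, which suggests that high means inhibition. Size under these conditions: about 65,000 compounds, about 64 of them at 50% or above in at least one test.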
LiHisRS: 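Enzyme assay of histidyl-tRNA synthetase; the read-out is not stated. Target: Histidine-tRNA ligase, Leishmania infantum (UniProt A4I591). Tested at 30 µM. Higher reads as stronger inhibition (inferred: compounds with an IC50 in retests scored well above the rest). The assay is labelled LdHisRS but filed under L. infantum. Size under these conditions: about 69,000 compounds, about 410 of them at 50% or above in at least one test.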

Compound	CoaBC	Pks13 thioesterase	MtTrpRS	LiHisRS
O=C(Nc1ccccc1OCCc1ccccn1)N1CCOCC1	-3.388	-11.31	1.683	13.25
Cc1nc(CN(C)CC2CCCN(CCc3ccc(Cl)cc3)C2)no1 (centres unmarked)	0	-4.784	3.333	30.77
Cc1ccc(N2CCCN(C(=O)c3c(C)oc(C)c3C)CC2)nn1	2.216	-10.12	-2.28	14.86
CCCc1cc(C(=O)N2C[C@H]3CCC[C@@]3(CO)C2)[nH]n1	1.653	-19.62	-0.2901	2.667
c1ccc(-c2ccc3nc(C4CCN(CC5CC5)CC4)nn3c2)cc1	-22.15	-3.158	-2.549	-1.905
Cc1cc(C(=O)NC2CCN(c3ncccc3C#N)CC2)on1	1.096	-23.22	3.579	26.88
CN(C)CCN1C(=O)CCCC12CCCN(C(=O)c1cc[nH]n1)C2 (centres unmarked)	0.6061	6.573	-	15.38
CCc1ccc(C(O)CN2CCN(c3cccc(OC)c3)CC2)cc1 (centres unmarked)	-1.266	56.45	3.885	-2.632
O=c1n(CCSCCOc2ccc(Br)cc2)nc2ccccn12	-10.14	12.61	-5.389	9.89
CCCOCC(=O)N1CCC2(CC1)c1nc[nH]c1CCN2S(C)(=O)=O	4.97	-0.6414	-3.771	12.9
Cn1c(=O)c2cc(C(=O)NCc3ccccn3)ccc2n(C)c1=O	0.6135	-2.008	-	18.56
CN1CC(c2ccccc2)C2(CCN(C(=O)c3cccn3C)CC2)C1=O (centres unmarked)	0.2114	-3.049	-3.312	0
COc1ncccc1CNCc1c(C(C)C)nn(C)c1Cl	4.959	-30.21	0.09671	10.67
O=C(c1ccccc1C1CCNC1)N1CCC(N2CCC(O)CC2)CC1 (centres unmarked)	4.177	1.9	3.263	20.48
CCc1nc(CN(CC(N)=O)C(C)C)cs1	4.113	-46.76	-1.81	16.85
CN(C)[C@@H]1CN(Cc2ccoc2)C[C@@H]2CCCO[C@@H]21	0.6435	-12.69	-1.63	3.922
CCCS(=O)(=O)N1C[C@@H]2CN(Cc3ccoc3)CCO[C@@H]2C1	5.011	-	0.5162	10.53
O=C(c1ncccn1)N1C[C@@H]2CN(CC3CC3)CCO[C@@H]2C1	4.065	-22.57	-0.3666	12.61
CN(CC(=O)NS(=O)(=O)c1ccc(F)cc1)Cc1ccccc1	8.228	7.028	1.168	22.08
Cc1cc(=O)n(CC(=O)Nc2cccc(Cl)c2)nc1C	5.428	5.811	2.681	2.4
Cn1cc(-c2cnc(N3CCOCC3)nc2)cc1C(=O)N1CCCC1	0.7519	0.6697	2.075	7.692
N#Cc1ccc(CN2C(=O)c3ccccc3CS2(=O)=O)cc1	-2.428	37.63	-0.07179	14.29
COc1ccc2c(c1)OCC(CNC(=O)c1cc(C(C)C)on1)C2 (centres unmarked)	2.81	-30.55	-1.483	20.78
O=C(Cn1nc(-c2ccc(F)cc2)oc1=O)NCc1ccccc1F	5.703	0.4169	-3.578	19.64
Cc1ccc2oc(C(=O)N3CCCC(n4nc(C)cc4C)C3)cc2n1 (centres unmarked)	-1.554	-10.05	-0.07424	17.02
COc1ncccc1NC(=O)NC1CCCN(c2ncccn2)C1 (centres unmarked)	-8.043	-9.85	-1.874	15.38
CCc1[nH]c2c(CNc3cncc(C(=O)N(C)C)n3)cc(F)cc2c1C	3.137	14.68	-6.23	13.56
Fc1ccccc1-c1nc(CNCCn2cccn2)cs1	7.143	2.533	-55.55	23.64
O=C([C@H]1CCCO1)N1CCCC2(COCCN(c3ccccc3)C2)C1 (some centres unmarked)	4	15.02	-	17.31
Oc1nc(C2CC2)nc2c1nnn2C1CCN(Cc2ccoc2)CC1	1.914	7.94	-5.078	14.39
Cc1cccc(C(=O)NCc2ccnc(N(C)C)c2)n1	12.05	-10.54	2.737	5.333
CCOc1ncccc1NC(=O)NCC(O)c1ccccc1OC (centres unmarked)	5.141	-38.89	1.495	23.6
CC(c1ccc(-c2cnc(N)nc2)cc1)N1CCOCC1 (centres unmarked)	2.258	-23.61	2.651	-32.89
Cc1ccc(-n2ncc(C(=O)N3CCCC3c3cnn(C)c3)c2C)cc1 (centres unmarked)	15.35	-15.78	4.583	-3.571
COC(=O)[C@H](CC(C)C)NC(=O)c1snnc1-c1ccc(OC)cc1	-21.61	-9.422	-1.375	14.61
O=C(NCC1CC1)c1cc2c(s1)CCN2C(=O)c1ccc(F)cc1	-6.535	-43.6	-2.748	-19.44
O=C(c1ccc(F)c(F)c1)N1CCCC1CN1CCCC1 (centres unmarked)	5.263	-10.12	-4.343	20
O=C(O)c1ccc(S(=O)(=O)Nc2ccc(Cl)c(F)c2)c(F)c1	0.1186	5.175	-2.895	-9.524
COc1cc2nc(C)n(CC(=O)NCC(C)C)c(=O)c2cc1OC	3.817	20.1	2.288	15.38
CC(=O)Nc1ccc(SCCCC(=O)NCC2CCCO2)nn1 (centres unmarked)	3.065	-27.83	-3.832	25.97
Cc1cccc(C(C(=O)NC(C)(C)CN2CCCC2)N(C)C)c1 (centres unmarked)	8.156	-7.462	-3.52	18.07
Cc1cnc(N2C(=O)CSC2c2cccs2)s1 (centres unmarked)	-1.79	32.23	5.302	14.94

Some entries from above, unchanged:

Compound,CoaBC,Pks13 thioesterase,MtTrpRS,LiHisRS
CN1CC(c2ccccc2)C2(CCN(C(=O)c3cccn3C)CC2)C1=O (centres unmarked),0.2114,-3.049,-3.312,0
Cc1cccc(C(=O)NCc2ccnc(N(C)C)c2)n1,12.05,-10.54,2.737,5.333
c1ccc(-c2ccc3nc(C4CCN(CC5CC5)CC4)nn3c2)cc1,-22.15,-3.158,-2.549,-1.905
COc1ncccc1NC(=O)NC1CCCN(c2ncccn2)C1 (centres unmarked),-8.043,-9.85,-1.874,15.38
Cc1ccc(-n2ncc(C(=O)N3CCCC3c3cnn(C)c3)c2C)cc1 (centres unmarked),15.35,-15.78,4.583,-3.571

From ChEMBL document CHEMBL3988442, “University of Dundee, Small-Polar-MMV Screening Library” (2021).